At least one structure is not confirmed: it was looked up by name or label, or the drawing left a doubt.
Test system: diet-induced obesity (DIO) mouse model
Test: Comparative example: weight loss on co-administration of semaglutide with test compound or setmelanotide in DIO mice
Format: in vivo
Settings: repeated co-administration with semaglutide for 18 days, test compound 15 mg/kg/day, comparative compound 3 mg/kg/day, FIG. 4
From the text: In a diet-induced obesity (DIO) mouse model where obesity was induced using a high-fat diet, the weight loss effect was compared after 18 days of repeated co-administration of semaglutide (a GLP-1 receptor agonist, trade name: Ozempic) with either the test compound, which is an MC4R agonist, or setmelanotide (RM-493), which is a peptide MC4R agonist (hereinafter referred to as ‘comparative compound’). Dosages of the test compound and the comparative compound were selected based on the efficacious doses observed in single administration studies (test compound: 15 mg/kg/day, comparative compound: 3 mg/kg/day). Body weight measurements were taken once daily prior to the administration of the test substances, and changes in body weight after 18 days relative to weight (D1) prior to the administration of the test substances were calculated and presented in FIG. 4.

CC(=O)N[C@@H](CCCNC(=N)N)C(=O)N[C@H]1CSSC[C@@H](C(N)=O)NC(=O)[C@H](Cc2c[nH]c3ccccc23)NC(=O)[C@H](CCCNC(=N)N)NC(=O)[C@@H](Cc2ccccc2)NC(=O)[C@H](Cc2c[nH]cn2)NC(=O)[C@@H](C)NC1=O [comparative compound, setmelanotide, reference compound]
weight loss effect (change in body weight after 18 days relative to D1): no such synergistic weight loss effect was observed

From US20260000675A1, “COMBINATION THERAPY FOR PREVENTING OR TREATING OBESITY” (LG CHEM, LTD., priority 2022, published 2026)
